Measured values from article PMC6156765.
No constants are given. Whether binding was seen depends on the method and setting. In cells and extracts the contact can be indirect. Here binding means that the protein was enriched with, or labelled near, the bait; the list need not be complete. Sequences can lack the tags named with a protein.

Amino acid sequences for entries named in this document (tags omitted). A change or cut given only in a name is not applied to a line headed by its entry.
UniProt P62259: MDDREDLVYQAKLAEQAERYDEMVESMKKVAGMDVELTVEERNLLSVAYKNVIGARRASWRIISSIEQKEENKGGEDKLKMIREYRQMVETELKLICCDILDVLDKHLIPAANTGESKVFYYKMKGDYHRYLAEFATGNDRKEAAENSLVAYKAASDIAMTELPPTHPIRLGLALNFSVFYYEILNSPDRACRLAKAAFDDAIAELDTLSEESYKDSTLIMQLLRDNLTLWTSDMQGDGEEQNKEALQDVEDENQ
UniProt P63101: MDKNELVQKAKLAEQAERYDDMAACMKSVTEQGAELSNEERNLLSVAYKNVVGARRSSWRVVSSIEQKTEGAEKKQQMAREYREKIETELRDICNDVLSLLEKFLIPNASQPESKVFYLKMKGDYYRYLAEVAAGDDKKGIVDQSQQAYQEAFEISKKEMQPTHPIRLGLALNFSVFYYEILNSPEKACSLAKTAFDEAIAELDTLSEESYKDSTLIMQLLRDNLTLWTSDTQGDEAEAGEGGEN
UniProt P68510: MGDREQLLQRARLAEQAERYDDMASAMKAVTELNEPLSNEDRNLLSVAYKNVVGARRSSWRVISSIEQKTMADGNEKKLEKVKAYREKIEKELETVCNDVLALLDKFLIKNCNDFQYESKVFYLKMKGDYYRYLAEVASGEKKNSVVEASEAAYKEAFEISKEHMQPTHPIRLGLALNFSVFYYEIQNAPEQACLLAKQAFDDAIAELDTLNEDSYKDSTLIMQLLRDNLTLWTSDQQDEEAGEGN

T1: GFP-PTB1 + 2 (TBC1D1 tandem N-terminal PTB1-PTB2 domains, residues 1-381) (human) (UniProt Q86TI0)
T1 sequence: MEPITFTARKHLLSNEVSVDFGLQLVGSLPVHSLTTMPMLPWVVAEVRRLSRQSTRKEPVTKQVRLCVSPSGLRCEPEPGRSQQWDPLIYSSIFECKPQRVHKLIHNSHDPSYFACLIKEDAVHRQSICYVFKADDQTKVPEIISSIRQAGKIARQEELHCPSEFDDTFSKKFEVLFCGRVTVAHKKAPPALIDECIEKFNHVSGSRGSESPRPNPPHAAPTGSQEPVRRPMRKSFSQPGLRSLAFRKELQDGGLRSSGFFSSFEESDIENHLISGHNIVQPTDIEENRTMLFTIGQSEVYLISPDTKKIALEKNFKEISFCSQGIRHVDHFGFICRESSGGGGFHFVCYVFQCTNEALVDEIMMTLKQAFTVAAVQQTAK

B1: IRAP (insulin-responsive aminopeptidase) (protein, UniProt Q8C129 1-1025)
chain: MESFTNDRLQLPRNMIENSMFEEEPDVVDLAKEPCLHPLEPDEVEYEPRGSRLLVRGLGEHEMDEDEEDYESSAKLLGMSFMNRSSGLRNSAAGYRQSPDGTCSLPSARTLVICVFVIVVAVSVIMVIYLLPRCTFTKEGCHKTNQSAELIQPVATNGKVFPWAQIRLPTAIIPLCYELSLHPNLTSMTFRGSVTISLQALQDTRDIILHSTGHNISRVTFMSAVSSQEKQVEILEYPYHEQIAVVAPEPLLTGHNYTLKIEYSANISNSYYGFYGITYTDKSNEKKYFAATQFEPLAARSAFPCFDEPAFKATFIIKITRNEHHTALSNMPKKSSVPAEEGLIQDEFSESVKMSTYLVAFIVGEMRNLSQDVNGTLVSVYAVPEKIGQVHHALDTTIKLLEFYQTYFEIQYPLKKLDLVAIPDFEAGAMENWGLLTFREETLLYDNATSSVADRKLVTKIIAHELAHQWFGNLVTMQWWNDLWLNEGFATFMEYFSVEKIFKELNSYEDFLDARFKTMRKDSLNSSHPISSSVQSSEQIEEMFDSLSYFKGASLLLMLKSYLSEDVFRHAVILYLHNHSYAAIQSDDLWDSFNEVTDKTLDVKKMMKTWTLQKGFPLVTVQRKGTELLLQQERFFLRMQPESQPSDTSHLWHIPISYVTDGRNYSEYRSVSLLDKKSDVINLTEQVQWVKVNSNMTGYYIVHYAHDDWTALINQLKRNPYVLSDKDRANLINNIFELAGLGKVPLRMAFDLIDYLKNETHTAPITEALFQTNLIYNLLEKLGHMDLSSRLVARVHKLLQNQIQQQTWTDEGTPSMRELRSALLEFACAHSLENCTTMATNLFDSWMASNGTQSLPTDVMVTVFKVGARTEKGWLFLFSMYSSMGSEAEKNKILEALASSEDVHKLYWLMKSSLDGDIIRTQKLSLIIRTVGRHFPGHLLAWDFVKENWNKLVHKFHLGSYTIQSIVAGSTHLFSTKTHLSEVQAFFENQSEATLKLRCVQEALEVIQLNIQWMVRNLKTLSQWL
B2: 14-3-3 protein α/β (protein, UniProt Q9CQV8 1-246)
chain: MTMDKSELVQKAKLAEQAERYDDMAAAMKAVTEQGHELSNEERNLLSVAYKNVVGARRSSWRVISSIEQKTERNEKKQQMGKEYREKIEAELQDICNDVLELLDKYLILNATQAESKVFYLKMKGDYFRYLSEVASGENKQTTVSNSQQAYQEAFEISKKEMQPTHPIRLGLALNFSVFYYEILNSPEKACSLAKTAFDEAIAELDTLNEESYKDSTLIMQLLRDNLTLWTSENQGDEGDAGEGEN
B3: 14-3-3 protein γ (protein, UniProt P61982 1-247)
chain: MVDREQLVQKARLAEQAERYDDMAAAMKNVTELNEPLSNEERNLLSVAYKNVVGARRSSWRVISSIEQKTSADGNEKKIEMVRAYREKIEKELEAVCQDVLSLLDNYLIKNCSETQYESKVFYLKMKGDYYRYLAEVATGEKRATVVESSEKAYSEAHEISKEHMQPTHPIRLGLALNYSVFYYEIQNAPEQACHLAKTAFDDAIAELDTLNEDSYKDSTLIMQLLRDNLTLWTSDQQDDDGGEGNN

Target: T1, GFP-PTB1 + 2 (TBC1D1 tandem N-terminal PTB1-PTB2 domains, residues 1-381) (human)
Assay: affinity purification with mass spectrometry; SILAC; GFP-trap beads (4°C, 1 h) from lysates of C2C12 myotubes expressing GFP-PTB1 + 2 or GFP, precipitation buffer (50 mM Tris-HCl pH 7.4, 50 mM NaCl, 0.5% NP40), four washes, Nano LC-MS/MS

binding, binds:
14-3-3 protein ε (from UniProt P62259 1-255)
14-3-3 protein ζ/δ (from UniProt P63101 1-245)
14-3-3 protein η (from UniProt P68510 1-246)
B1
B2
B3
